Data as given in PMC13155533, “The secreted protein PCYOX1L controls the surface expression of acid-sensing ion channel 1a” (Science Advances, 2025).
These are yes or no findings as the source states them, for the method shown. Sequences can lack the tags named with a protein.

Target: T1, rat ASIC1a-GFP (rat) (UniProt P55926)
T1 sequence: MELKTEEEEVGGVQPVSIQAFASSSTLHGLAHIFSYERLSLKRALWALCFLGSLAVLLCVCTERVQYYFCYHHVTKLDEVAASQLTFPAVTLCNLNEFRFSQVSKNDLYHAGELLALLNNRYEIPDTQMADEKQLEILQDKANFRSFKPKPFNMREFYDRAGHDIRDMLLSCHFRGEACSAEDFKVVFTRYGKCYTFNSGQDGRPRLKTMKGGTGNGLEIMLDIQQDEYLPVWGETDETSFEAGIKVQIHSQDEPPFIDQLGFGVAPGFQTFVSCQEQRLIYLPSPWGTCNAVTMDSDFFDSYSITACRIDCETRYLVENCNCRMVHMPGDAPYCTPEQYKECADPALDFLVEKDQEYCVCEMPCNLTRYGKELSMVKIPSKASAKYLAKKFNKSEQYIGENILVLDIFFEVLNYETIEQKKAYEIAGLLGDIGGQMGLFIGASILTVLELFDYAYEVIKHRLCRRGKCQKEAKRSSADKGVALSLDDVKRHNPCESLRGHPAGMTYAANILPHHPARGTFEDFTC
Assay: native gel or EMSA; high-resolution clear native PAGE (4 to 16%) of GFP-tagged proteins from 1% digitonin lysates of transfected HEK cells, GFP fluorescence scan; ASIC1a-GFP coexpressed with PCYOX1L-GFP

rat PCYOX1L-GFP
binding: no binding
